Literature values as cited in patent US10905671B2, “Method of using omega 3 fatty acids to treat diseases which involve damage to the nervous system” (priority 2013, dated 2021).
At least one structure is not confirmed: it was looked up by name or label, or the drawing left a doubt.

Test system: optic neuritis
Settings: 3 days, intravenous; cited from earlier work

In the case of C[C@H]1C[C@@H]2[C@H]([C@@H](O)C[C@@]3(C)[C@H]2CC[C@]3(O)C(=O)CO)[C@@]2(C)C=CC(=O)C=C12 [methylprednisolone], the visual recovery is listed as “hastens visual recovery”.
